Eleven targets from the supplement of paper PMC10849652 can be followed below.

The chains behind the UniProt entries cited, without tags or fusion partners. Where a name states a change or a piece, a line headed by the entry shows the natural chain unless it says otherwise.
UniProt P51511: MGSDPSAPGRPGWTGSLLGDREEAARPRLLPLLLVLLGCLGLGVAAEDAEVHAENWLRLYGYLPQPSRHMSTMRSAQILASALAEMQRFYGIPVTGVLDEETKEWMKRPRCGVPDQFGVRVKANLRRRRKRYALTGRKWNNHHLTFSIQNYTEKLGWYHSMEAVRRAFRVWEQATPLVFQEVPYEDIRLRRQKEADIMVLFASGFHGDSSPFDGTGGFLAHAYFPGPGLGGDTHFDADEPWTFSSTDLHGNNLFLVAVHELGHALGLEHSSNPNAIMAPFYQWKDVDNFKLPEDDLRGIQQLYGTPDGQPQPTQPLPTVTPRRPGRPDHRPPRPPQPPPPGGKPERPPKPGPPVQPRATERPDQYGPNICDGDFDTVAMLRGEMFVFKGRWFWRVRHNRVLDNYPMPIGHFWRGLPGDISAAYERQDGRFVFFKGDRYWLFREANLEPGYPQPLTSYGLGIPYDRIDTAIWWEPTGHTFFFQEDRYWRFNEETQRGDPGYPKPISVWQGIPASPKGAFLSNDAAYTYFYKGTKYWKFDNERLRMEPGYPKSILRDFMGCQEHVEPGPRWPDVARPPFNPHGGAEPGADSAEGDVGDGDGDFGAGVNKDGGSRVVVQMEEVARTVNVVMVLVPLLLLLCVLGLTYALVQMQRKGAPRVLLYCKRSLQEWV
UniProt Q95460, whole entry, looked up: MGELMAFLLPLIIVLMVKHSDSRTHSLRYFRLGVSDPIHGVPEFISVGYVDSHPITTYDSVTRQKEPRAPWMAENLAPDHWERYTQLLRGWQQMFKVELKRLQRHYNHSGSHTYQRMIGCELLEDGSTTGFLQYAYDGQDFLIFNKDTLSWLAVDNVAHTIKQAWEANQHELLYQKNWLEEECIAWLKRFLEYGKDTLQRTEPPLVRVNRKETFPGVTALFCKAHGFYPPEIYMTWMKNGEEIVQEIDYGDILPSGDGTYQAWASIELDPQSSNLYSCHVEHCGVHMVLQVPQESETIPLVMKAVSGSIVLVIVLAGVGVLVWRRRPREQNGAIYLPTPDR
UniProt Q8NB16: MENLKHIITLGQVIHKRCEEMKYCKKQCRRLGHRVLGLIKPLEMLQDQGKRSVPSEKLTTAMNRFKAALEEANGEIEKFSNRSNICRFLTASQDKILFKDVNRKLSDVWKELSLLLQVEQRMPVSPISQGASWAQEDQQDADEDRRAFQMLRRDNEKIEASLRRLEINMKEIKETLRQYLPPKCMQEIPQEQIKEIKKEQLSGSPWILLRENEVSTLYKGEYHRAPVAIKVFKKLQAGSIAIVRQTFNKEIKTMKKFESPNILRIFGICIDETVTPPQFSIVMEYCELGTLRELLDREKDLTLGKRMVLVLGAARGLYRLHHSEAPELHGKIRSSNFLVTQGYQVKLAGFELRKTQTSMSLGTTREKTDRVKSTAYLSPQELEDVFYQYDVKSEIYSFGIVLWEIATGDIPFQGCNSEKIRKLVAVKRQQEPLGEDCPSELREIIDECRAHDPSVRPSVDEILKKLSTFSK
UniProt Q86TA1: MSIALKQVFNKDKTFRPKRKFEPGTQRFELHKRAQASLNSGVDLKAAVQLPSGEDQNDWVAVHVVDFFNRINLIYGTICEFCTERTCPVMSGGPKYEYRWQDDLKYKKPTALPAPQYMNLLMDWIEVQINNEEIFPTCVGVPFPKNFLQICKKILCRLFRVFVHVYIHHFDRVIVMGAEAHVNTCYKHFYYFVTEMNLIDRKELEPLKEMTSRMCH
UniProt Q9UJG1: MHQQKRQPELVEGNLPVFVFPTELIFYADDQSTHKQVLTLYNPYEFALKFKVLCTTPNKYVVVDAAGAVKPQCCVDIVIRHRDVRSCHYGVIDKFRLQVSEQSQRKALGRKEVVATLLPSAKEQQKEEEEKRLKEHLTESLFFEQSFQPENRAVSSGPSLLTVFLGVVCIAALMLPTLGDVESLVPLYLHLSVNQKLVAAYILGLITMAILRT
UniProt Q9Y5U8: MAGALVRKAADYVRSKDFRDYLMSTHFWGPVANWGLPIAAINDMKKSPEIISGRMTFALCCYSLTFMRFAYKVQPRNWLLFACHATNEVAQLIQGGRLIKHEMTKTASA
UniProt Q8NBR6: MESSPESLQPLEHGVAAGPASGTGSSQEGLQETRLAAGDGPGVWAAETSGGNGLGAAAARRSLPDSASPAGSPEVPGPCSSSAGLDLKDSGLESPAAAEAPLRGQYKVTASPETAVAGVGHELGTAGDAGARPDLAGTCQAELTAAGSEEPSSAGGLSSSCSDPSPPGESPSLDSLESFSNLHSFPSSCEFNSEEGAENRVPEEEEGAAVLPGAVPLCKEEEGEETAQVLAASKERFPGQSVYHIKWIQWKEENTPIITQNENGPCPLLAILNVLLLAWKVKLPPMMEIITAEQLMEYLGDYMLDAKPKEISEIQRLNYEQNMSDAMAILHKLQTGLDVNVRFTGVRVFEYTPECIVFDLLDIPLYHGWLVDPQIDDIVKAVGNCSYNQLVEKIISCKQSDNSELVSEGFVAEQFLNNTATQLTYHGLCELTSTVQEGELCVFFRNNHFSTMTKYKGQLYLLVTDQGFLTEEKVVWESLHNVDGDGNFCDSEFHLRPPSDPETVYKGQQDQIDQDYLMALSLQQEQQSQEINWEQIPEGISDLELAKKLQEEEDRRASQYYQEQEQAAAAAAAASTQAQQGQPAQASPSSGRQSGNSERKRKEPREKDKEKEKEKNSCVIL
UniProt Q7L4E1: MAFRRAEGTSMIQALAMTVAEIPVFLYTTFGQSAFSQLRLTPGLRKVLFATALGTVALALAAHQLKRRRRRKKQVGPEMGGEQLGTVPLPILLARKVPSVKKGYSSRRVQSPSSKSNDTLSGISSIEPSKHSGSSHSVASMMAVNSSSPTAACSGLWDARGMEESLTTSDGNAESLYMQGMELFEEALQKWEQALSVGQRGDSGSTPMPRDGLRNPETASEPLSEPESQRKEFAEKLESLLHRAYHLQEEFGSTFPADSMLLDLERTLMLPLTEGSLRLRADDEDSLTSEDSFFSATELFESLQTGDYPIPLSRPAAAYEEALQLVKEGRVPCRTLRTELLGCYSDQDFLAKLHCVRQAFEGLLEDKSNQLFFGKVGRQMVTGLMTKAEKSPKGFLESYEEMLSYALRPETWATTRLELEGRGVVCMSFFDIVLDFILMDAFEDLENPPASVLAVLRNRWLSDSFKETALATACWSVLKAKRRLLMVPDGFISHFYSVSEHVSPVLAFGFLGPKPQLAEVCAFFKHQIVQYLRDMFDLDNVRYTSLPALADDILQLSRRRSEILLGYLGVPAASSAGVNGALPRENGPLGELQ
UniProt P55197: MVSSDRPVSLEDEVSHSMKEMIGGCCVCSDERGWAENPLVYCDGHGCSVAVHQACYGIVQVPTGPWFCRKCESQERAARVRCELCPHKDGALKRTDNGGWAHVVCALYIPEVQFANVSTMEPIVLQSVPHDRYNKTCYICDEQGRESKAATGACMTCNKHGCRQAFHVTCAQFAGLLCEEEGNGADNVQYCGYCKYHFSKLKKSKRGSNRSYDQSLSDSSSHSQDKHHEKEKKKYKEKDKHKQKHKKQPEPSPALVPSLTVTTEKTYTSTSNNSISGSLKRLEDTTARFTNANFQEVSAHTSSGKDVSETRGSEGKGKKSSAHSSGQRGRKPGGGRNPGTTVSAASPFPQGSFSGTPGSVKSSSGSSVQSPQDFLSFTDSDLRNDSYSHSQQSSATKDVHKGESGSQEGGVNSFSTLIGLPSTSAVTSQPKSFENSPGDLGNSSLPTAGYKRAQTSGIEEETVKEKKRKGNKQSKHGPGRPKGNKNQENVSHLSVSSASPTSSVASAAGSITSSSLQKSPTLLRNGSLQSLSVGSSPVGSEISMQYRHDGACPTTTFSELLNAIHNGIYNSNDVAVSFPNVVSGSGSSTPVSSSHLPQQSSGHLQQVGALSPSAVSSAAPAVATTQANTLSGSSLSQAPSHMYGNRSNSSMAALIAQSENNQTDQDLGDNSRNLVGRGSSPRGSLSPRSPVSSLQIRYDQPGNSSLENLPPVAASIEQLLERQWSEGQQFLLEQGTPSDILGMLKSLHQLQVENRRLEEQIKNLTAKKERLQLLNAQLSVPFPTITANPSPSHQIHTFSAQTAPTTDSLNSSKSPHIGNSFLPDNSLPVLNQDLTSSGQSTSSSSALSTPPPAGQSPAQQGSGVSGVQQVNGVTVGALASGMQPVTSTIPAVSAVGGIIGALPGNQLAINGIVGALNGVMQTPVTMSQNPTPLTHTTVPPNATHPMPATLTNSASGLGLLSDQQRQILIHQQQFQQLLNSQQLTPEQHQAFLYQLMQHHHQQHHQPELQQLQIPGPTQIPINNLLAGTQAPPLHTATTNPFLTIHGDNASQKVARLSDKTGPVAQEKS
UniProt Q29983, whole entry, looked up: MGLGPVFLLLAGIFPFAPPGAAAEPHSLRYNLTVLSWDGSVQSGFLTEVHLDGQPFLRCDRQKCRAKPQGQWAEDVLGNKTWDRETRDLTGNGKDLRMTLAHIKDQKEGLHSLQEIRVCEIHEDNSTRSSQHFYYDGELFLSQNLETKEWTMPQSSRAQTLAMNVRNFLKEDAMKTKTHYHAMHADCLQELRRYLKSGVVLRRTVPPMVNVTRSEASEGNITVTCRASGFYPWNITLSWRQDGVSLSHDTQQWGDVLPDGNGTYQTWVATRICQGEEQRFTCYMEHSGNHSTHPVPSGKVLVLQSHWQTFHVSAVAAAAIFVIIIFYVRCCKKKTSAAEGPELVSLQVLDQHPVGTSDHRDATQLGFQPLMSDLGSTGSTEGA

Common to all, as to experiment: log2 fold change, soluble protein after heating vs DMSO (PISA); higher = thermal stabilisation; K562 cells, 10 uM, 30 min; active = over 0.2 and 3.5 SD of the protein, either way, in both replicates (recomputed)
Compound in experiment [1]: CCn1cc(-c2ccnc3[nH]c(-c4cccc(CN(C)C)c4)cc23)c(-c2ccc(NC(=O)N(C)C)cc2)n1
Summed up:
(§1)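 Soluble protein was quantified by TMTpro 16plex LC-MS/MS after channel sums were equalised. It was obtained as the supernatant after 21,000xg for 90 min from pooled aliquots of K562 cells (2×10^6 cells/mL, 10 μM compound, 30 min) heated for 3 min across 48°C-58°C and extracted in PBS with 0.5% NP-40 at 4°C. Thermal stability values are relative to control samples and come from duplicates. They are given as log2 fold changes.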

Compound in experiment [2]: CN1CCC(CNc2ccc3ncc(-c4cccc(OC(F)(F)F)c4)n3n2)CC1
Summed up:
as §1

Compound in another experiment: CC[C@H](C)[C@@H](C(=O)N[C@@H]([C@@H](C)O)C(=O)N[C@@H](CC(C)C)C(=O)[C@]1(CO1)C)NC(=O)[C@H]([C@@H](C)CC)N(C)C(=O)C [epoxomicin]
In a few lines: as §1

Compound in experiment [3]: CCn1c(C(=O)N(C2CC2)C2CC2)cc2c3c(ncn3C)c(Nc3cc(C)n(C)n3)nc21
In a few lines: as §1

Compound in experiment [4]: CNC(=O)C1=CC=CC=C1NC2=NC(=NC=C2Cl)NC3=C(C=C(C=C3)N4CCOCC4)OC
In a few lines: as §1

Compound in experiment [5]: CC[C@@H]1C(=O)N(C)c2cnc(Nc3ccc(C(=O)NC4CCN(C)CC4)cc3OC)nc2N1C1CCCC1
Summed up:
as §1

Compound in a further experiment: CC[C@@H]1C(=O)N(C)c2cnc(Nc3ccc(C(=O)N[C@H]4CC[C@H](N5CCN(CC6CC6)CC5)CC4)cc3OC)nc2N1C(C)C [volasertib]
In a few lines:
as §1

Compound in experiment [6]: CN(C)CC(=O)Nc1ccc2[nH]c(=O)c3ccccc3c2c1
Summed up: as §1

Compound in a further experiment: CN1CCN(c2nc(C3=C(c4c[nH]c5ccccc45)C(=O)NC3=O)c3ccccc3n2)CC1 [sotrastaurin]
Summed up: as §1

Compound in a further experiment: CN1CC[C@H](c2c(O)cc(O)c3c(=O)cc(-c4ccccc4Cl)oc23)[C@H](O)C1 [alvocidib]
Summed up:
as §1

Compound in the next experiment: CN1CCc2c(c3ccccc3n2Cc2ccc(C(=O)NO)cc2)C1 [Tubastatin A]
Summed up:
as §1

Compound in a further experiment: CNC(=O)c1ccc(Nc2ncc(C(F)(F)F)c(NCc3nccnc3N(C)S(C)(=O)=O)n2)cc1 [defactinib]
In a few lines: as §1

Compound in the next experiment: CNCc1ccc(-c2[nH]c3cc(F)cc4c3c2CCNC4=O)cc1 [rucaparib]
In a few lines:
as §1

Compound in the next experiment: COC(=O)N[C@@H](C)CNc1nccc(-c2cn(C(C)C)nc2-c2cc(Cl)cc(NS(C)(=O)=O)c2F)n1 [encorafenib]
Summed up:
as §1

Compound in experiment [7]: COC(=O)[C@H](CCSC)NC(=O)C1=C(C=C(C=C1)NC[C@H](CS)N)C2=CC=CC=C2
Summed up:
as §1

Compound in experiment [8]: CC[C@H](C)N1C=C(C2=C(C=C(C=C21)C3=CN=C(C=C3)N4CCNCC4)C(=O)NCC5=C(C=C(NC5=O)C)C)C
In a few lines:
as §1

Compound in the next experiment: CN(CCOC1=CC=C(C=C1)C[C@H]2C(=O)NC(=O)S2)C3=CC=CC=N3 (racemic) [rosiglitazone]
In a few lines: as §1

Compound in experiment [9]: CN1C2=C(C3=C1C(=O)N(N=C3)CC4=CC(=CC=C4)N)SC(=C2)S(=O)C
In a few lines:
as §1

Compound in a further experiment: CN1CCN(CCOc2cc(OC3CCOCC3)c3c(Nc4c(Cl)ccc5c4OCO5)ncnc3c2)CC1 [saracatinib]
Summed up: as §1

Compound in experiment [10]: CNc1nc(-c2ccc3c(N)n[nH]c3c2)cc(N2C[C@@H](C(=O)NC3CCCCC3)CC[C@H]2C)n1
In a few lines:
as §1

The list shows a part of the results.

For the target MMP15 (UniProt P51511), the results for the log2 fold change in experiment [1] and in [2] were inactive: -0.024 and inactive: -0.056, respectively.
Regarding MR1 (UniProt Q95460), the log2 fold change was inactive: 0.018 with epoxomicin, inactive: 0.004 in experiment [3] and inactive: -0.037 in experiment [4].
Take MLKL (UniProt Q8NB16): the log2 fold change in experiment [5] is inactive: 0.079; with volasertib, inactive: 0.042; with epoxomicin, inactive: -0.104; in [3], inactive: -0.221; in experiment [1], inactive: -0.089; in experiment [6], inactive: 0.03. The log2 fold change in [2] is inactive: 0.061; in the experiment with sotrastaurin, inactive: 0.009; with alvocidib it was inactive: -0.284; with Tubastatin A, inactive: -0.003; in experiment [4], inactive: -0.355; in the experiment with defactinib, inactive: -0.106. Also, the log2 fold change with rucaparib is inactive: -0.003; with encorafenib, inactive: -0.04; in experiment [7], inactive: 0.018.
As for MOB3B (UniProt Q86TA1), the log2 fold change is active: -0.633 with volasertib; inactive: -0.045 in experiment [8]; inactive: -0.016 in experiment [1]; inactive: 0.034 in experiment [6]; inactive: -0.159 in [2]; inactive: -0.03 in the experiment with Tubastatin A. The log2 fold change in [4] was inactive: -0.324; with defactinib, inactive: -0.252; in [7], inactive: 0.078.
With MKKS (UniProt Q9HB66), the log2 fold change in experiment [5] is inactive: 0.061; in experiment [8], inactive: -0.097; with epoxomicin it was inactive: 0.349; in [3], inactive: -0.017; in experiment [1] it was inactive: 0.018; in experiment [6] it was inactive: -0.003. In addition, the log2 fold change with rosiglitazone is inactive: -0.038; in experiment [9], inactive: -0.088; in experiment [2], inactive: 0.176; in the experiment with saracatinib, inactive: 0.018; in the experiment with sotrastaurin, inactive: 0.045; with alvocidib, inactive: 0.099. Also, the log2 fold change with Tubastatin A is inactive: -0.032; in experiment [4], inactive: -0.024; with defactinib, inactive: 0.016; with rucaparib it was inactive: 0.005; in [10], inactive: 0.058; with encorafenib, inactive: -0.043. In addition, the log2 fold change in [7] was inactive: 0.003.
In the case of MOSPD1 isoform 3 (UniProt Q9UJG1), the log2 fold change is inactive: -0.015 in experiment [8]; inactive: -0.139 in [3]; inactive: -0.033 in experiment [1]; inactive: 0.268 in experiment [2]; inactive: 0.013 in [4].
Consider MPC1 (UniProt Q9Y5U8), for which the log2 fold change in experiment [5] is inactive: -0.287; in the experiment with volasertib it was inactive: -0.051; in [8], inactive: -0.073; in experiment [3], inactive: -0.03; in the experiment with rosiglitazone, inactive: -0.21; in experiment [9], inactive: -0.019. Besides, the log2 fold change with saracatinib was inactive: 0.064; in the experiment with sotrastaurin it was inactive: -0.03; in the experiment with alvocidib, inactive: -0.067; in the experiment with Tubastatin A, inactive: 0.032; in [4], inactive: 0.039; in the experiment with rucaparib, inactive: 0.121. Moreover, the log2 fold change in experiment [10] is inactive: 0.037; with encorafenib, inactive: -0.222.
In the case of MINDY2 (UniProt Q8NBR6), the log2 fold change is inactive: -0.012 with epoxomicin; inactive: -0.3 in experiment [3]; inactive: 0.034 in the experiment with alvocidib; inactive: 0.075 in the experiment with Tubastatin A; inactive: -0.047 in experiment [4].
Consider MIGA2 (UniProt Q7L4E1), for which the log2 fold change with alvocidib was inactive: -0.003.
With MLLT10 (UniProt P55197), the log2 fold change with volasertib was inactive: -0.051; with epoxomicin, inactive: -0.153; in experiment [1], inactive: 0.118; in the experiment with rosiglitazone it was inactive: -0.178; in experiment [2], inactive: -0.138.
With MICA (UniProt Q29983), the log2 fold change with volasertib was inactive: 0.024; in [3], inactive: -0.079; in [1] it was inactive: -0.066; in experiment [6], inactive: 0.033; with rosiglitazone it was inactive: -0.007; in experiment [2] it was inactive: 0.151. Also, the log2 fold change is inactive: -0.018 in the experiment with sotrastaurin; inactive: 0.007 in the experiment with Tubastatin A; inactive: -0.035 in experiment [4]; inactive: -0.01 with defactinib; inactive: -0.113 in [7].
